Experimental data from the supplement of paper PMC8728848.
The other results are listed elsewhere or left out.

How the values were obtained:
Assay in all cases: glycan array binding signal (z-score within array); higher = stronger binding
Conditions in all cases: glycan notation: IUPAC condensed, linker removed
Neu5Ac(a2-8)Neu5Ac = molecular target: Neu5Ac(a2-8)Neu5Ac
How it was run: (§1)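 The binding signal is a Z-score computed within each array. Data were drawn from 3228 arrays in the Consortium for Functional Glycomics database, restricted to those with a known protein sequence. Scores were averaged over arrays of the same protein sequence at different concentrations or buffers, and over linkers, and negative values can be taken as non-binding.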

[1] = molecular target: Neu5Ac(a2-8)Neu5Ac(a2-3)Gal(b1-3)GalNAc(b1-4)[Neu5Ac(a2-3)]Gal(b1-4)Glc
How it was run: as §1

[2] = molecular target: Neu5Ac(a2-8)Neu5Ac(a2-3)Gal(b1-3)GalNAc(b1-4)[Neu5Ac(a2-8)Neu5Ac(a2-3)]Gal(b1-4)Glc
How it was run: as §1

[3] = molecular target: Neu5Ac(a2-8)Neu5Ac(a2-3)Gal(b1-4)Glc
How it was run: as §1

[4] = molecular target: Neu5Ac(a2-8)Neu5Ac(a2-3)Gal(b1-4)GlcNAc
How it was run: as §1

[5] = molecular target: Neu5Ac(a2-8)Neu5Ac(a2-3)[Gal(b1-3)GalNAc(b1-4)]Gal(b1-4)Glc
How it was run: as §1

[6] = molecular target: Neu5Ac(a2-8)Neu5Ac(a2-3)[GalNAc(b1-4)]Gal(b1-4)Glc
How it was run: as §1

[7] = molecular target: Neu5Ac(a2-8)Neu5Ac(a2-8)Neu5Ac
How it was run: as §1

[8] = molecular target: Neu5Ac(a2-8)Neu5Ac(a2-8)Neu5Ac(a2-3)Gal(b1-4)Glc
How it was run: as §1

[9] = molecular target: Neu5Ac(a2-8)Neu5Ac(a2-8)Neu5Ac(a2-3)[Gal(b1-3)GalNAc(b1-4)]Gal(b1-4)Glc
How it was run: as §1

[10] = molecular target: Neu5Ac(a2-8)Neu5Ac(a2-8)Neu5Ac(a2-3)[GalNAc(b1-4)]Gal(b1-4)Glc
How it was run: as §1

[11] = molecular target: Neu5Ac(a2-8)Neu5Ac(a2-8)Neu5Ac(a2-8)Neu5Ac(a2-3)[GalNAc(b1-4)]Gal(b1-4)Glc
How it was run: as §1

[12] = molecular target: Neu5Ac(a2-8)Neu5Gc(a2-3)Gal(b1-4)GlcNAc
How it was run: as §1

[13] = molecular target: Neu5Ac(b2-6)Gal(b1-4)GlcNAc
How it was run: as §1

Neu5Ac(b2-6)GalNAc = molecular target: Neu5Ac(b2-6)GalNAc
How it was run: as §1

[14] = molecular target: Neu5Ac9Ac(a2-3)Gal(b1-3)GlcNAc
How it was run: as §1

[15] = molecular target: Neu5Ac9Ac(a2-3)Gal(b1-4)GlcNAc
How it was run: as §1

[16] = molecular target: Neu5Ac9Ac(a2-6)Gal(b1-4)GlcNAc
How it was run: as §1

[17] = molecular target: Neu5Gc(a2-3)Gal(b1-3)GlcNAc
How it was run: as §1

[18] = molecular target: Neu5Gc(a2-3)Gal(b1-3)[Fuc(a1-4)]GlcNAc
How it was run: as §1

Neu5Gc(a2-3)Gal(b1-4)Glc = molecular target: Neu5Gc(a2-3)Gal(b1-4)Glc
How it was run: as §1

[19] = molecular target: Neu5Gc(a2-3)Gal(b1-4)GlcNAc
How it was run: as §1

[20] = molecular target: Neu5Gc(a2-3)Gal(b1-4)GlcNAc(b1-3)Gal(b1-4)GlcNAc(b1-2)Man(a1-3)[Neu5Gc(a2-3)Gal(b1-4)GlcNAc(b1-3)Gal(b1-4)GlcNAc(b1-2)Man(a1-6)]Man(b1-4)GlcNAc(b1-4)GlcNAc
How it was run: as §1

[21] = molecular target: Neu5Gc(a2-3)Gal(b1-4)[Fuc(a1-3)]GlcNAc
How it was run: as §1

[22] = molecular target: Neu5Gc(a2-6)Gal(b1-4)GlcNAc
How it was run: as §1

Neu5Gc(a2-6)GalNAc = molecular target: Neu5Gc(a2-6)GalNAc
How it was run: as §1

[23] = molecular target: Neu5Gc(a2-8)Neu5Ac(a2-3)Gal(b1-4)GlcNAc
How it was run: as §1

[24] = molecular target: Neu5Gc(a2-8)Neu5Gc(a2-3)Gal(b1-4)GlcNAc
How it was run: as §1

[25] = molecular target: Neu5Gc(a2-8)Neu5Gc(a2-3)Gal(b1-4)GlcNAc(b1-3)Gal(b1-4)GlcNAc
How it was run: as §1

[26] = molecular target: Neu5Gc(a2-8)Neu5Gc(a2-6)Gal(b1-4)GlcNAc
How it was run: as §1

[27] = molecular target: Neu5Gc(b2-6)Gal(b1-4)GlcNAc
How it was run: as §1

B1: EUL D1A second (Oryza sativa) (protein)
chain: GAATACTIGGVPVHTVRVFSAAGEDYCLTVRNGTACLAPKNPRDDYQHWIKDMRHSNKIRDEEGYPAFALVNKVTGEAIKHSTGQGHPVKLVPYNPEYQDESVLWTESKDVGKGFRCIRMVNNIYLNFDAFHGDKDHGGIHDGTEIVLWKWCEGDNQRWKILPWILEQKLISEEDLNSAVDHHHHHH
Neu5Ac(a2-8)Neu5Ac
  glycan array binding signal (z-score): -0.158
[1]
  glycan array binding signal (z-score): -0.223
[2]
  glycan array binding signal (z-score): -0.35
[3]
  glycan array binding signal (z-score): -1.8
[4]
  glycan array binding signal (z-score): 0.14
[5]
  glycan array binding signal (z-score): -1.57
[6]
  glycan array binding signal (z-score): 0.083
[7]
  glycan array binding signal (z-score): 0.501
[8]
  glycan array binding signal (z-score): 1.46
[9]
  glycan array binding signal (z-score): 0.664
[10]
  glycan array binding signal (z-score): 0.205
[11]
  glycan array binding signal (z-score): 0.722
[12]
  glycan array binding signal (z-score): -0.715
[13]
  glycan array binding signal (z-score): -1.19
Neu5Ac(b2-6)GalNAc
  glycan array binding signal (z-score): -0.496
[14]
  glycan array binding signal (z-score): -0.82
[15]
  glycan array binding signal (z-score): -1.29
[16]
  glycan array binding signal (z-score): 0.22
[17]
  glycan array binding signal (z-score): -1.91
[18]
  glycan array binding signal (z-score): 0.128
Neu5Gc(a2-3)Gal(b1-4)Glc
  glycan array binding signal (z-score): 0.509
[19]
  glycan array binding signal (z-score): 1.04
[20]
  glycan array binding signal (z-score): -1.53
[21]
  glycan array binding signal (z-score): 1.36
[22]
  glycan array binding signal (z-score): -1.13
Neu5Gc(a2-6)GalNAc
  glycan array binding signal (z-score): 0.72
[23]
  glycan array binding signal (z-score): -0.225
[24]
  glycan array binding signal (z-score): -1.4
[25]
  glycan array binding signal (z-score): 1
[26]
  glycan array binding signal (z-score): -0.554
[27]
  glycan array binding signal (z-score): 0.542
